From PubChem BioAssay AID1794845 (National Center for Advancing Translational Sciences (NCATS), 2023)
Among all 6,900 compounds or so, fewer than 10 were called active. The call rests on the fitted dose curve; in most records, active means well fitted curve in the direction sought with a large enough effect; inconclusive means small, poorly fitted or top-dose-only effect, or another doubt; inactive means no such curve, though single readings can be large or run the other way. The list shows a part of the results.

Sequences of proteins named here, by UniProt entry; tags and fusion partners are left off. A change or cut given only in a name is not applied to a line headed by its entry.
UniProt C7C422: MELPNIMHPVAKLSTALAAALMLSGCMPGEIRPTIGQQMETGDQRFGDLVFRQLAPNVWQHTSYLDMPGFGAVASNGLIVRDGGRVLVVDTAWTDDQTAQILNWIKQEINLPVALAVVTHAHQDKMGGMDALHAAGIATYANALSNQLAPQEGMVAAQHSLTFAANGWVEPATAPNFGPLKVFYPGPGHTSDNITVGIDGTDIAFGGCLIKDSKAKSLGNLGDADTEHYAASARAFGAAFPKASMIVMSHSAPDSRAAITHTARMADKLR

target: Metallo-beta-lactamase type 2 (Klebsiella pneumoniae) (UniProt C7C422); experiment: qHTS to identify inhibitors of the New Delhi Metallo-beta-lactamase (NDM): primary screen against the NCATS Gemini Collection; conditions: NDM-1 enzyme, meropenem hydrolysis, absorbance 300 nm; at 38.4 µM (top of the series) unless noted; further: % of control where 0% means no effect
Source text: Assay Submitter (PI): James Inglese Ph.D., Patricia Dranchak Ph.D., Mahesh Aitha Ph.D. Assay Development and Screening Technology Laboratory (ADST) National Center for Advancing Translational Sciences (NCATS), Rockville, MD National Institute of Health (NIH), Bethesda, Maryland The metallo-beta-lactamases (MBL) are a main antibiotic resistance mechanism evolved by bacteria. There is an urgent clinical need for MBL inhibitors to mitigate this growing threat. To support a machine-based learning study, qHTS has been used to experimentally test inhibitors identified by prediction tools.
PROTOCOL TABLE (as described by Inglese et al., 2007) SEQUENCE No. (e.g., 1, 2, 3, etc.); […] (e.g., enzyme, Incubation, Reagent, etc.); VALUE; DESCRIPTION 1; NDM-1; 4 uL of 3 nM enzyme [2 nM final] in 50 mM HEPES (pH 7.0), 1 uM […], 0.01% Tween20; Use BioRaptr to dispense into Aurora black, clear bottom low base 1536-well plates 2; Compounds; 23 nL; Use Pin Tool (Wako) to transfer DMSO control and library compounds in DMSO 3; Incubate; >30 min 4; Reagent; 2 uL of 150 uM meropenem [50 uM final] 5; Incubate; 30 min. 6; Detector; Absorbance at 300 nm (bandwidth = 5 nm, 25 flashes/well) on Tecan Infinity NOTES (numbers refer to sequence above) 1; Column 1 of each plate received assay buffer without enzyme and columns 2-48 received enzyme for a final assay concentration of 2 nM. 2; Control plate contained DMSO in columns 1, 2, 3, and 4. 3; Compound interaction with enzyme. 4; Meropenem substrate was prepared in the same assay buffer as step 1 for a final assay concentration of 50 uM and added to all wells across the assay plates. 5; Substrate interaction with enzyme, plateau phase of kinetics. 6; Default reader settings were applied for absorbance read at 300 nm, bandwidth = 5 nm, 25 flashes/well. References: Inglese J, Shamu CE, Guy RK. 2007. Reporting data from high-throughput screening of small-molecule libraries. Nat Chem Biol. doi:10.1038/nchembio0807-438 Yasgar A, Shinn P, Jadhav A, Auld D, Michael S, Zheng W, Austin CP, Inglese J, Simeonov A. 2008. Compound Management for Quantitative High-Throughput Screening. J Lab Autom 13:79 - 89. doi:10.1016/j.jala.2007.12.004

| Structure (SMILES) | activity % (negative = inhibition) |
| --- | --- |
| O=C(NCCc1csc(-c2cnccn2)n1)C1CC2(CCNCC2)CN1 (centres undefined) | inactive: 35.4% |
| CC(=O)N1CCC2(CC1)CC(c1cccc(C(F)(F)F)c1)=NO2 | inactive: -5.33% [at 57.5 µM] |
| CN1CCc2[nH]cnc2C12CCN(C(=O)Cc1ccc(F)cc1Cl)CC2 | inactive: -2.31% |
| COC[C@@H]1CN(C(=O)CC2=CCCCC2)C[C@H]1c1ccncc1 | inactive: -0.277% |
| O=C(Cn1c(=O)oc2ccccc21)N1CCCC(Cc2noc(-c3ccccc3)n2)C1 (centres undefined) | inactive: -5.97% |
| CC1Oc2ccc(NC(=O)CC(C)(C)C)cc2CN(CCc2ccccc2)C1=O (centres undefined) | inactive: -15.3% |
| Cc1nc([C@H]2CCN(Cc3cccc(OC(F)(F)F)c3)C[C@H]2NC(=O)C2CC2)n[nH]1 | inactive: 20.6% |
| COc1ccccc1-c1ccc(C(=O)N2CCC(N[S+](=O)([O-])c3ccccc3)CC2)cc1 | inactive: 4.17% |
| Cc1noc(C)c1-c1cc2cc(CN(C)C)oc2c(N2CCOCC2)n1 | inactive: 4.61% [at 57.5 µM] |
| CCCn1c(C)cnc1CCNC(=O)CC1CCN(C(C)=O)CC1 | inactive: 15.7% |
| Cc1cccc(C(=O)N2CCC(c3nc(C4CCOCC4)no3)C2)c1 (centres undefined) | inactive: -8.94% |
| CN1CCC2(CCC1=O)CN(C(=O)CCOc1ccccc1)CCN2C (centres undefined) | inactive: 7.81% |
| CCc1nc(-c2c3n(c(=O)n(CC(=O)NC4CCCC4)c2=O)CCCCC3)no1 | inactive: -0.651% |
| CC(=O)c1c(C)nn(CCC(=O)N2CCC3(CC2)[C@H](O)C[C@@H]3O)c1C | inactive: -2.52% |
| COc1ccc(-c2cn3cc(C(=O)N4CCCCC4)nc3c(=O)n2CC2CC2)cc1 | inactive: 11.3% |
| CN(C)[C@@H]1CN(Cc2ccccn2)CC[C@@H]1CO | inactive: -4.69% |
| O=C1CC2CCN(C(=O)C3CCCCC3)CC2CCN1 (centres undefined) | inactive: -1.99% [at 57.5 µM] |
| Cc1ccc(C(CC(=O)N2CCCCC2)c2cn(C)c3ccccc23)cc1 (centres undefined) | inactive: 13.4% |
| O=C1CCC2(CCCN(c3ncccc3F)C2)CN1Cc1ccncc1 (centres undefined) | inactive: 0.99% |
| COc1ccc(C(=O)N2CCC(Cn3c(C)cnc3C3CCC3)CC2)c(OC)c1 | inactive: 0.471% |
| CC(C)c1nccn1Cc1cc(C(=O)N(C)Cc2ccccc2Cl)n[nH]1 | inactive: 0.0528% |
| O=C(c1cccc(-c2ccccn2)c1)N1CCN([S+](=O)([O-])c2ccccc2)CC1 | inactive: 2.81% |
| C[S+](=O)([O-])c1ccc(-c2nnc3ccc(C(=O)NC4CCCCC4)cn23)cc1 | inactive: -5.27% |
| CCn1c(C)ccc(C(=O)N2CCc3[nH]nc(-c4ccccc4F)c3C2)c1=O | inactive: 0.437% |

In the list so far, these have a Cl atom:

| Structure (SMILES) | activity % (negative = inhibition) |
| --- | --- |
| CN1CCc2[nH]cnc2C12CCN(C(=O)Cc1ccc(F)cc1Cl)CC2 | inactive: -2.31% |
| CC(C)c1nccn1Cc1cc(C(=O)N(C)Cc2ccccc2Cl)n[nH]1 | inactive: 0.0528% |
